Test results from publication PMC2669294, “The Spliceosomal Phosphopeptide P140 Controls the Lupus Disease by Interacting with the HSC70 Protein and via a Mechanism Mediated by γδ T Cells” (PLoS ONE, 2009).

Chains of the proteins cited; added tags and fusions are not shown.
UniProt P63017: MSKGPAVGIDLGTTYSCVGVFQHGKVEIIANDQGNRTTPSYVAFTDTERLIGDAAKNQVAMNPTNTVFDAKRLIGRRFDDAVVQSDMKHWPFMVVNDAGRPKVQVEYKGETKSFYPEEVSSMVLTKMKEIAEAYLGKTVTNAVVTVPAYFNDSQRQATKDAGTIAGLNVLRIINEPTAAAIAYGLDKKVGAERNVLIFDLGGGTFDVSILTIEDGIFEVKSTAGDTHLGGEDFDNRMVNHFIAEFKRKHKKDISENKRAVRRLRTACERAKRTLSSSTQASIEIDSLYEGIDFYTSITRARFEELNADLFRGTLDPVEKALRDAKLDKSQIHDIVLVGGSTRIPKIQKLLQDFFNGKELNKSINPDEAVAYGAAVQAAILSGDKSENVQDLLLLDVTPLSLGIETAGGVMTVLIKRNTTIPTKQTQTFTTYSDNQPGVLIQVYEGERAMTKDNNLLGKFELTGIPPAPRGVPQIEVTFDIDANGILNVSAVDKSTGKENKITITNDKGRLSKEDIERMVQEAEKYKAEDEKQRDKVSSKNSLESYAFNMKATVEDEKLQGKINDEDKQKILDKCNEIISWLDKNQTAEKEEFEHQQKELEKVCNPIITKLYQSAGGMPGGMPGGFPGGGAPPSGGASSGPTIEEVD

Molecular target: heat-shock cognate 71-kDa protein (HSC70) expressed on the surface of mouse splenocytes and lymph node cells (mouse (endogenous in MRL/lpr and CBA/J splenocytes and LNCs)) (UniProt P63017)
Assay: affinity purification with mass spectrometry; same procedure as a1 with unlabeled P140 peptide added as a competitor; band quantified by densitometry; only the binder purified

- binding: binds
Binder: RIHMVYSKRSGKPRGYAFIEY (phosphoserine at Ser140 (position 10 of the peptide)) [P140 peptide (U1-70K snRNP protein residues 131-151, phosphorylated on Ser140)]

Results are given in words; binding and its absence hold for the method and conditions named. In cells and extracts the contact can be indirect. Here binding means that the protein was enriched with, or labelled near, the bait; the list need not be complete.
